Laboratory results as given in PMC12805590.

B1: Livin (BIRC7) (protein, UniProt Q96CA5 1-298)
chain: MGPKDSAKCLHRGPQPSHWAAGDGPTQERCGPRSLGSPVLGLDTCRAWDHVDGQILGQLRPLTEEEEEEGAGATLSRGPAFPGMGSEELRLASFYDWPLTAEVPPELLAAAGFFHTGHQDKVRCFFCYGGLQSWKRGDDPWTEHAKWFPSCQFLLRSKGRDFVHSVQETHSQLLGSWDPWEEPEDAAPVAPSVPASGYPELPTPRREVQSESAQEPGGVSPAEAQRAWWVLEPPGARDVEAQLRRLQEERTCKVCLDRAVSIVFVPCGHLVCAECAPGLQLCPICRAPVRSRVRTFLS
B2: Myc–SIAH1 WT (enzyme, UniProt Q8IUQ4 1-282)
chain: MSRQTATALPTGTSKCPPSQRVPALTGTTASNNDLASLFECPVCFDYVLPPILQCQSGHLVCSNCRPKLTCCPTCRGPLGSIRNLAMEKVANSVLFPCKYASSGCEITLPHTEKADHEELCEFRPYSCPCPGASCKWQGSLDAVMPHLMHQHKSITTLQGEDIVFLATDINLPGAVDWVMMQSCFGFHFMLVLEKQEKYDGHQQFFAIVQLIGTRKQAENFAYRLELNGHRRRLTWEATPRSIHEGIATAIMNSDCLVFDTSIAQLFAENGNLGINVTISMC

What was measured:
[1] = molecular target: apoptosis-related protein in the transforming growth factor-β signaling pathway (ARTS) (human (endogenous in MDA-MB-231)); experiment: co-IP; anti-ARTS IP of endogenous proteins, whole-cell lysates (RIPA buffer) of MDA-MB-231 cells treated with DOX or DTX
[2] = molecular target: apoptosis-related protein in the transforming growth factor-β signaling pathway (ARTS) (human (endogenous in MDA-MB-231)); experiment: proximity ligation; Duolink In Situ PLA on fixed MDA-MB-231 cells under PBS, DOX or DTX
[3] = molecular target: apoptosis-related protein in the transforming growth factor-β signaling pathway (ARTS) (human (endogenous in MDA-MB-231)); experiment: condition: only PBS-treated cells (without DOX or DTX); co-IP; anti-ARTS IP of endogenous proteins, whole-cell lysates (RIPA buffer) of PBS-treated MDA-MB-231 cells
[4] = molecular target: apoptosis-related protein in the transforming growth factor-β signaling pathway (ARTS) (human (endogenous in MDA-MB-231)); experiment: condition: only with the caspase-8 inhibitor Z-IETD-FMK; co-IP; anti-ARTS IP of endogenous proteins, MDA-MB-231 cells treated with DOX or DTX plus the caspase-8 inhibitor Z-IETD-FMK
[5] = molecular target: apoptosis-related protein in the transforming growth factor-β signaling pathway (ARTS) (human (endogenous in MDA-MB-231)); experiment: co-IP; subcellular fractionation (nuclear/cytosolic/mitochondrial) and anti-ARTS IP, cells treated with DOX or DTX; complex in the cytosolic fraction
Flag–ARTS WT = experiment: co-IP; HEK293T cells cotransfected with Flag–ARTS, HA–Livin and Myc–SIAH1 (WT or mutants); IP with anti-Flag, anti-HA or anti-Myc, immunoblot

Row | binding [1] | binding [2] | binding [3] | binding [4] | binding [5] | binding (Flag–ARTS WT) | Binder
1 | binds | binds | no binding | no binding | binds | – | B1
2 | – | – | – | – | – | binds | B2

These are yes or no findings as the source states them, for the method shown. Binding seen in cells or lysates may run through a third protein. For part of these data: Binding calls can cover weak binding; strength is not graded here. For part of these data: Tags and fused reporters may be left off the sequences shown.
